Experimental data as given in the supplement of paper PMC10849652.
This is one part of the list.

Sequences of proteins named here, by UniProt entry; tags and fusion partners are left off. A change or cut given only in a name is not applied to a line headed by its entry.
UniProt P51795: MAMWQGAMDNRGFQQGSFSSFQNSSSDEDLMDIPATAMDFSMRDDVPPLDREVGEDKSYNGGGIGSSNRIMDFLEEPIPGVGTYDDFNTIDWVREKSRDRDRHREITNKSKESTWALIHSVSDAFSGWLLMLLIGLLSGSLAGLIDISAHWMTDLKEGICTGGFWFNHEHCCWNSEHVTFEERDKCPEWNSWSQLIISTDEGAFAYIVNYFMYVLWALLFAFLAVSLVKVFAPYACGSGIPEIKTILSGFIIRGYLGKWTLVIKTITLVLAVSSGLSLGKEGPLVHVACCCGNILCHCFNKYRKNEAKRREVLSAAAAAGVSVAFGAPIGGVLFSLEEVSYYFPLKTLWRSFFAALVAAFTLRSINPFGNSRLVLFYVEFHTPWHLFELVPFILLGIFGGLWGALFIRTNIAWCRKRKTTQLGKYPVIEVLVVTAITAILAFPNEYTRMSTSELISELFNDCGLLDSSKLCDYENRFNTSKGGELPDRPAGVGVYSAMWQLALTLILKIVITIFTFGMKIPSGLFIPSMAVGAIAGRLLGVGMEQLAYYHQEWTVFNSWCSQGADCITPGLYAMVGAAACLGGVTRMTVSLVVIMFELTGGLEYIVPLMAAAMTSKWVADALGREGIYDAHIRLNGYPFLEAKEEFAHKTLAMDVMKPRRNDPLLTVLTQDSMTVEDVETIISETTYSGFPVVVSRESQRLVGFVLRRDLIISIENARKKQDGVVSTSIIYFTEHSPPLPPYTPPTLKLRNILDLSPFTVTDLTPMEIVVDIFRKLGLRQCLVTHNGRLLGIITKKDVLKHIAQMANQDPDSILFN
UniProt O94985: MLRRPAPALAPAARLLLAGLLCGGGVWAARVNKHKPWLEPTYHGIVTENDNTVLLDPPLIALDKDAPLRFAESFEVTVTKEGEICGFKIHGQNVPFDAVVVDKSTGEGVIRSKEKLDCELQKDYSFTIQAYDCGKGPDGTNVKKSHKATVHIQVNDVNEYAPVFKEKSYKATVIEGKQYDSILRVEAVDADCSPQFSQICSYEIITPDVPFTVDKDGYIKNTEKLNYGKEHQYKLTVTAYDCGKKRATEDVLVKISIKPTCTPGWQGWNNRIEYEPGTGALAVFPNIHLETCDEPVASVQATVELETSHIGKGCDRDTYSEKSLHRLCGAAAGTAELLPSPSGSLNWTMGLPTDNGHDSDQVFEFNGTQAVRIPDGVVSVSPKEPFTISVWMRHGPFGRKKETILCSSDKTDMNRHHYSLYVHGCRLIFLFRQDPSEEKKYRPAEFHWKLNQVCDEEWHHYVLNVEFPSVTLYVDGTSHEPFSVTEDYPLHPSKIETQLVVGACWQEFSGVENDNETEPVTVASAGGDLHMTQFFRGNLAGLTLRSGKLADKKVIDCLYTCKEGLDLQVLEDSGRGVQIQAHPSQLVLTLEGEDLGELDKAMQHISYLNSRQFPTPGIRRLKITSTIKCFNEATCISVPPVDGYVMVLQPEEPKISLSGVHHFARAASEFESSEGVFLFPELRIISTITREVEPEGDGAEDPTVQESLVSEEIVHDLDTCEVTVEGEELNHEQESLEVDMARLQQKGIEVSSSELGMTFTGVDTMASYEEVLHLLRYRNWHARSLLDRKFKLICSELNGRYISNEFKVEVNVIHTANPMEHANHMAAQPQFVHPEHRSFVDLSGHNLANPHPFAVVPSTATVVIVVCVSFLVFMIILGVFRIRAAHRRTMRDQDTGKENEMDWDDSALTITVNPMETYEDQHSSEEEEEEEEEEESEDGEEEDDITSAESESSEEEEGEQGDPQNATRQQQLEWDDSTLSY
UniProt Q8WVB6, whole entry, looked up: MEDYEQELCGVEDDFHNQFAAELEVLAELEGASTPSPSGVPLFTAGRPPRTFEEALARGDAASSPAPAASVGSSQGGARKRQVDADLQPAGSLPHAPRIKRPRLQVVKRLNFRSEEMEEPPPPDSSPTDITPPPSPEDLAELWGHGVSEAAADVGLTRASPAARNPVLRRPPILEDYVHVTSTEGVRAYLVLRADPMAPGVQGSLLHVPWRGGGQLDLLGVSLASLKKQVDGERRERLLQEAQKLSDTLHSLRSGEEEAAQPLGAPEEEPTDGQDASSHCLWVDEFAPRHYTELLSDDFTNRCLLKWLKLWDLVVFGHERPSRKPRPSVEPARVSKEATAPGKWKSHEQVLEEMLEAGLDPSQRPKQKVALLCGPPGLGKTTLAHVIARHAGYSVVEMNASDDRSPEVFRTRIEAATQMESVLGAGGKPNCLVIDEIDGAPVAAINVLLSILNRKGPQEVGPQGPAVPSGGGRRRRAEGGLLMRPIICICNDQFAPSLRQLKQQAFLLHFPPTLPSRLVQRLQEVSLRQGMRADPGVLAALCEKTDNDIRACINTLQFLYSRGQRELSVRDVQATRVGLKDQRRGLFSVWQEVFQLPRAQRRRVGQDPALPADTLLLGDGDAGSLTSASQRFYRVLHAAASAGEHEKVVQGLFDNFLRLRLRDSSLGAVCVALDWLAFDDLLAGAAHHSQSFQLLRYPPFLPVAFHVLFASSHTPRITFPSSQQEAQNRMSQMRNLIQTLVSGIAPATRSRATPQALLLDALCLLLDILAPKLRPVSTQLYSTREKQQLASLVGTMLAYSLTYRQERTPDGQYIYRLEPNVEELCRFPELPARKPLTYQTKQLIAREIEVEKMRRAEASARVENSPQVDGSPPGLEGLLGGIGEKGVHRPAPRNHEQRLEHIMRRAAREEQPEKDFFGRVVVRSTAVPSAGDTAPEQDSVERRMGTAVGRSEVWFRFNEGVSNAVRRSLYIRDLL
UniProt P56277: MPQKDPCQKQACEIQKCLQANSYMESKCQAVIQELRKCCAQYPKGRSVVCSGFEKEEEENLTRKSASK
UniProt Q9Y4C5: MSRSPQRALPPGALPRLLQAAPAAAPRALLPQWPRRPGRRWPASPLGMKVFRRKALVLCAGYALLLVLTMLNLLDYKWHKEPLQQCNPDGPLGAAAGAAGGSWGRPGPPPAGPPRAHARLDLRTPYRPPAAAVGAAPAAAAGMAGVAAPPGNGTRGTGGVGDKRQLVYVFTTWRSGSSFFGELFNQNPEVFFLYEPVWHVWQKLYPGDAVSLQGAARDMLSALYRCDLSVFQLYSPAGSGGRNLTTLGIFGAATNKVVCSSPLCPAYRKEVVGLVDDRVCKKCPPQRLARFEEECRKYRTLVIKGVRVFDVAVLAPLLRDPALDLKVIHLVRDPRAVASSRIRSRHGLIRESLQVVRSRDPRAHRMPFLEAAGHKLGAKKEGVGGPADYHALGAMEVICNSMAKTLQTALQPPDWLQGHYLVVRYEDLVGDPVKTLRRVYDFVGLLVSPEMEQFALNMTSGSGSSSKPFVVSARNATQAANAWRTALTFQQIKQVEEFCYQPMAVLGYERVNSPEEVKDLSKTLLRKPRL

What was measured:
Test in all cases: log2 fold change, soluble protein after heating vs DMSO (PISA); higher = thermal stabilisation; K562 lysate, 10 uM; active = over 0.2 and 3.5 SD of the protein, either way, in both replicates (recomputed)
[1] = compound: CCCS(=O)(=O)Nc1ccc(F)c(C(=O)c2c[nH]c3ncc(Cl)cc23)c1F
Procedure, shortened: (§1)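 Log-two fold change in thermal stability relative to solvent controls is reported from duplicates. For each sample, crude K562 extract from dounce-homogenised pellets in PBS pH 7.4 with 1 mM MgCl2, at 1 mg/mL protein, was treated with 10 μM compound for 30 min. Aliquots heated for 3 min across 48°C-58°C were pooled, brought to 0.5% NP-40 at 4°C and cleared at 21,000xg for 90 min. The supernatant was quantified by TMTpro 16plex LC-MS/MS with channel sums equalised.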

[2] = compound: CC[C@@H]1C(=O)N(C)c2cnc(Nc3ccc(C(=O)N[C@H]4CC[C@H](N5CCN(CC6CC6)CC5)CC4)cc3OC)nc2N1C(C)C [volasertib]
Procedure, shortened: as §1

[3] = compound: CCn1c(C(=O)N(C2CC2)C2CC2)cc2c3c(ncn3C)c(Nc3cc(C)n(C)n3)nc21
Procedure, shortened: as §1

[4] = compound: CC[C@@H]1C(=O)N(C)c2cnc(Nc3ccc(C(=O)NC4CCN(C)CC4)cc3OC)nc2N1C1CCCC1
Procedure, shortened: as §1

[5] = compound: CCn1cc(-c2ccnc3[nH]c(-c4cccc(CN(C)C)c4)cc23)c(-c2ccc(NC(=O)N(C)C)cc2)n1
Procedure, shortened: as §1

[6] = compound: CN1CCC(CNc2ccc3ncc(-c4cccc(OC(F)(F)F)c4)n3n2)CC1
Procedure, shortened: as §1

[7] = compound: CN1CCN(c2nc(C3=C(c4c[nH]c5ccccc45)C(=O)NC3=O)c3ccccc3n2)CC1 [sotrastaurin]
Procedure, shortened: as §1

[8] = compound: CN1CCN(CCOc2cc(OC3CCOCC3)c3c(Nc4c(Cl)ccc5c4OCO5)ncnc3c2)CC1 [saracatinib]
Procedure, shortened: as §1

[9] = compound: CCN(CCCOc1ccc2c(Nc3cc(CC(=O)Nc4cccc(F)c4)[nH]n3)ncnc2c1)CCOP(=O)(O)O [barasertib]
Procedure, shortened: as §1

Measured: log2 fold change

CLCN5 isoform 2 (UniProt P51795)
inactive: [1] -0.108 | [2] 0.006 | [3] -0.094

CLSTN1 (UniProt O94985)
inactive: [1] -0.104 | [4] 0.158 | [2] -0.023 | [3] 0.348 | [5] -0.51 | [6] 0.051 | [7] -0.002

CHTF18 (UniProt Q8WVB6)
inactive: [1] -0.046 | [4] 0.162 | [2] -0.228 | [3] 0.051 | [8] -0.018 | [7] 0.041

CMC4 (UniProt P56277)
inactive: [1] -0.003 | [2] 0.014 | [7] 0.072

CHST2 (UniProt Q9Y4C5)
inactive: [1] -0.029 | [9] 0.122 | [2] 0.097 | [5] -0.367 | [6] 0.078 | [8] 0.141 | [7] 0.089
